Here are results for 74 compounds from the supplement of paper PMC7024190.

Structures can show the parent of a compound that is named as a salt. The list shows a part of the results. Repeats in this data set agree poorly, so a single value says little.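 A first-round screen of about ten thousand compounds sought those raising reporter output, using human embryonic kidney cells briefly transfected with a plasmid carrying a Renilla luciferase gene driven by the HSV-TK promoter.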

The subject of the test is HEK 293FT. Description: log relative Renilla luciferase luminescence (reporter expression vs reference, reference not stated) (log (base not stated)); higher = higher recombinant reporter expression. The settings on record: 10 µM; time after transfection 48 h.
Take `COc1cc2ncnc(Nc3ccc(F)c(Cl)c3)c2cc1OCCCN1CCOCC1` [Gefitinib]: the log amounted to 0.119.

For `CC(C(=O)O)c1ccc(C(=O)c2cccs2)cc1` (centres undefined) [Suprofen], the log is -0.263. Take `CCCCC[C@H](O)/C=C/[C@H]1[C@H](O)CC(=O)[C@@H]1CCCCCCC(=O)O` [Alprostadil]: the log was -0.048. As to `CCN1CCC[C@H]1CNC(=O)c1c(O)c(Cl)cc(Cl)c1OC` [Raclopride], the log is -0.0681. In the case of `CN[C@@H]1[C@H](O[C@H]2[C@H](O[C@H]3[C@H](O)[C@@H](O)[C@H](NC(=N)N)[C@@H](O)[C@@H]3NC(=N)N)O[C@@H](C)[C@]2(O)CO)O[C@@H](CO)[C@H](O)[C@H]1O` [Dihydrostreptomycin sulfate], the log amounted to 0.0641. For `NCc1ccc(S(N)(=O)=O)cc1` [Mafenide hydrochloride], the log is 0.0238. Take `CCc1oc2ccccc2c1C(=O)c1cc(Br)c(O)c(Br)c1` [Benzbromarone]: the log was -0.807. To `CC/C(=C(\c1ccccc1)c1ccc(OCCN(C)C)cc1)c1ccccc1` [Tamoxifen citrate] belongs 0.136; to `C#C[C@]1(O)CC[C@H]2[C@@H]3CCC4=C(CCC(=O)C4)[C@H]3CC[C@@]21C` [Norethynodrel], -0.00154. To `CCOC(=O)[N-]c1c[n+](N2CCOCC2)no1` [Molsidomine] belongs 0.0542; to `CC[N+](CC)(CC)CCOc1cccc(OCC[N+](CC)(CC)CC)c1OCC[N+](CC)(CC)CC` [Gallamine triethiodide], 0.0996. `CC(C)(C)NCC(O)c1cc(O)cc(O)c1` (centres undefined) [Terbutaline hemisulfate]: the log was -0.0473. To `NS(=O)(=O)c1cc2c(cc1Cl)NC(CC1CCCC1)NS2(=O)=O` (centres undefined) [Cyclopenthiazide] belongs -0.106; to `Cc1ccccc1C(OCCN(C)C)c1ccccc1` (centres undefined) [Orphenadrine hydrochloride], 0.0943.

Turning to `CC(C)NCC(O)c1ccc(O)c(O)c1` (single isomer, unassigned; (-)) [(-)-Isoproterenol hydrochloride], the log is 0.134. As for `O=C1C(O)=C([C@H]2CC[C@H](c3ccc(Cl)cc3)CC2)C(=O)c2ccccc21` [Atovaquone], the figure is 0.0542; as for `NC(=O)NC1NC(=O)NC1=O` (centres undefined) [Allantoin], 0.135; as for `O=C1CCc2ccc(OCCCCN3CCN(c4cccc(Cl)c4Cl)CC3)cc2N1` [Aripiprazole], -0.247. With `CN(C)CCOC(c1ccc(Cl)cc1)c1ccccn1` (centres undefined) [Carbinoxamine maleate salt], the log was -0.115.

Regarding `COC(=O)C1=C(C)NC(C)=C(C(=O)OCC(C)C)C1c1ccccc1[N+](=O)[O-]` (centres undefined) [Nisoldipine], the log was -0.597. On to `COC(=O)C1=C(C)NC(C)=C(C(=O)OCCN(C)Cc2ccccc2)C1c1cccc([N+](=O)[O-])c1` (centres undefined) [Nicardipine hydrochloride], for which the log is 0.0943.

On to `CN1CCN(c2c(F)cc3c(=O)c(C(=O)O)cn4c3c2SCC4)CC1` [Rufloxacin], for which the log came to 0.154. To `Cc1cnc(C(=O)NCCc2ccc(S(=O)(=O)NC(=O)NC3CCCCC3)cc2)cn1` [Glipizide] belongs 0.0683. As for `COc1ccccc1N1CCN(CCCCNC(=O)c2ccc3ccccc3c2)CC1`, the figure is 0.0695. As for `CCC1NC(=O)c2cc(S(N)(=O)=O)c(Cl)cc2N1` (centres undefined) [Quinethazone], the figure is -0.0455; as for `CC(O)(P(=O)(O)O)P(=O)(O)O` [Etidronic acid, disodium salt], -0.0186. For `CCN(CC)CCOc1ccc(C(=C(Cl)c2ccccc2)c2ccccc2)cc1` [Clomiphene citrate (Z,E)], the log worked out at 0.156. Turning to `CN(C)[C@@H]1C(O)=C(C(=O)NCNCCCC[C@H](N)C(=O)O)C(=O)[C@@]2(O)C(O)=C3C(=O)c4c(O)cccc4[C@@](C)(O)[C@H]3C[C@@H]12` [Lymecycline], the log was -0.0785.

For the compound `CCCCNc1ccc(C(=O)OCCN(C)C)cc1` [Tetracaïne hydrochloride], the log was -0.115. As for `CN1CCOC(c2ccccc2)c2ccccc2C1` (centres undefined) [Nefopam hydrochloride], the figure is 0.0876; as for `CN1CCC(=C2c3ccccc3CCc3sccc32)CC1` [Pizotifen malate], 0.0949; as for `CCC(=O)OCC(=O)[C@@]1(OC(=O)CC)[C@@H](C)C[C@H]2[C@@H]3CCC4=CC(=O)C=C[C@]4(C)[C@@]3(Cl)[C@@H](O)C[C@@]21C` [Beclomethasone dipropionate], -1.4. To `CCN(CC)Cc1cc(Nc2ccnc3cc(Cl)ccc23)ccc1O` [Amodiaquin dihydrochloride dihydrate] belongs 0.135. Consider `COc1ccccc1N1CCN(CCCNc2cc(=O)n(C)c(=O)n2C)CC1` [Urapidil hydrochloride], for which the log is 0.137. As for `Cn1c(=O)c2c(ncn2CCO)n(C)c1=O` [Etofylline], the figure is 0.0598; as for `CC(C)NCC(O)c1cc(O)cc(O)c1` (centres undefined) [Metaproterenol sulfate, orciprenaline sulfate], -0.00598; as for `O=C(O)CN(CCN(CC(=O)O)CC(=O)O)CCN(CC(=O)O)CC(=O)O` [Pentetic acid], -0.404. As for `C#CCN(C)CCCOc1ccc(Cl)cc1Cl` [Clorgyline hydrochloride], the figure is 0.0466; as for `C[n+]1ccccc1/C=N/O` [Pralidoxime chloride], -0.916; as for `Cc1cccc(Nc2ccccc2C(=O)O)c1C` [Mefenamic acid], 0.175. As for `CCC(C)n1ncn(-c2ccc(N3CCN(c4ccc(OCC5COC(Cn6cncn6)(c6ccc(Cl)cc6Cl)O5)cc4)CC3)cc2)c1=O` (centres undefined) [Itraconazole], the figure is -1.38. For the compound `O=C(O)CCNC(=O)c1ccc(/N=N/c2ccc(O)c(C(=O)O)c2)cc1` [Balsalazide Sodium], the log is 0.00113. Take `O=C1OC(CN2CCOCC2)CN1/N=C/c1ccc([N+](=O)[O-])o1` (centres undefined) [Furaltadone hydrochloride]: the log was -0.072. To `CNCCCN1c2ccccc2CCc2ccccc21` [Desipramine hydrochloride] belongs 0.0159; to `O=C1NCCN1CCN1CCC(c2cn(-c3ccc(F)cc3)c3ccc(Cl)cc23)CC1` [Sertindole], -0.098; to `O=C1CCC(N2C(=O)c3ccccc3C2=O)C(=O)N1` (centres undefined) [Thalidomide], 0.03.

For the compound `CC(=O)OCC1=C(C(=O)O)N2C(=O)[C@@H](NC(=O)Cc3cccs3)[C@H]2SC1` [Cephalothin sodium salt], the log came out at 0.212. As for `Clc1ccc(C(Cn2ccnc2)OCc2csc3c(Cl)cccc23)c(Cl)c1` (centres undefined) [Sertaconazole nitrate], the figure is -0.0898; as for `CCN(CC)CCNC(=O)COc1ccc(OC)cc1` [Mefexamide hydrochloride], 0.097. On to `CC1(C)S[C@@H]2[C@H](NC(=O)Cc3ccccc3)C(=O)N2[C@H]1C(=O)O` [Benzathine benzylpenicillin], for which the log was determined as 0.0424. As for `CC1(C)S[C@@H]2[C@H](NC(=O)Cc3ccccc3)C(=O)N2[C@H]1C(=O)O` [Benzylpenicillin sodium], the figure is -0.0137; as for `CCCCc1nc(Cl)c(CO)n1Cc1ccc(-c2ccccc2-c2nnn[nH]2)cc1` [Losartan], 0.0638. As for `NCC[C@H](O)C(=O)N[C@@H]1C[C@H](N)[C@@H](O[C@H]2O[C@H](CN)[C@@H](O)[C@H](O)[C@H]2O)[C@H](O)[C@H]1O[C@H]1O[C@H](CO)[C@@H](O)[C@H](N)[C@H]1O` [Amikacin hydrate], the figure is 0.109; as for `Nc1nc(O)c2ncn(CCC(CO)CO)c2n1` [Penciclovir], 0.0331. To `Fc1ccc([C@@H]2CCNC[C@H]2COc2ccc3c(c2)OCO3)cc1` [Paroxetine Hydrochloride] belongs -0.0243; to `O=c1[nH]cnc2c1ncn2[C@H]1CC[C@@H](CO)O1` [Didanosine], 0.102; to `NCCC[C@H](N)CC(=O)N[C@H]1CNC(=O)[C@H]([C@H]2C[C@H](O)NC(N)=N2)NC(=O)/C(=C/NC(N)=O)NC(=O)[C@H](CO)NC(=O)[C@H](CO)NC1=O` [Viomycin sulfate], 0.0079. On to `NC(CO)C(=O)NNCc1ccc(O)c(O)c1O` (centres undefined) [Benserazide hydrochloride], for which the log is 0.129. As for `CN(C)CCCN1c2ccccc2CCc2ccccc21` [Imipramine hydrochloride], the figure is 0.226. To `CN1CCC(OC(c2ccccc2)c2ccccc2)CC1` [Diphenylpyraline hydrochloride] belongs 0.134; to `Clc1ccc(Nc2nnc(Cc3ccncc3)c3ccccc23)cc1` [Vatalanib], -0.404. To `CC(=O)SCC(Cc1ccccc1)C(=O)NCC(=O)OCc1ccccc1` (centres undefined) [Racecadotril] belongs -0.0642.

On to `C[C@H](CCC(=O)O)[C@H]1CC[C@H]2[C@@H]3CC[C@@H]4C[C@H](O)CC[C@]4(C)[C@H]3CC[C@]12C` [Lithocholic acid], for which the log was 0.00816. Consider `COC(=O)C1=C(C)NC(C)=C(C(=O)OC(C)C)C1c1cccc2nonc12` (centres undefined) [Isradipine], for which the log was -0.0407. To `C[C@@]1(O)CCOC(=O)C1` [Mevalonic-D, L acid lactone] belongs 0.0748. On to `COCC(=O)Nc1c(I)c(C(=O)NCC(O)CO)c(I)c(C(=O)N(C)CC(O)CO)c1I` (centres undefined) [Iopromide], for which the log was 0.0756. To `O=C(O)CCCC[C@@H]1SC[C@@H]2NC(=O)N[C@@H]21` [Biotin] belongs 0.0384; to `CC1COc2c(N3CCN(C)CC3)c(F)cc3c(=O)c(C(=O)O)cn1c23` (centres undefined) [Ofloxacin], 0.0361.

Turning to `CC(C)C(=O)Nc1ccc([N+](=O)[O-])c(C(F)(F)F)c1` [Flutamide], the log is -0.0547.

Take `Cn1cnc([N+](=O)[O-])c1Sc1ncnc2[nH]cnc12` [Azathioprine]: the log was -0.23. To `OCCN1C[C@H](O)[C@@H](O)[C@H](O)[C@H]1CO` [Miglitol] belongs 0.0638; to `c1ccc(CNc2ncnc3nc[nH]c23)cc1` [Aminopurine, 6-benzyl], -0.216. Regarding `CN1Cc2c(N)cccc2C(c2ccccc2)C1` (centres undefined) [Nomifensine maleate], the log was determined as 0.0626. To `CC(C)(O)c1ccccc1CC[C@@H](SCC1(CC(=O)O)CC1)c1cccc(/C=C/c2ccc3ccc(Cl)cc3n2)c1` [Montelukast] belongs 0.0444.
